Assay results: patent US20100040621A1, “Novel polpeptide and use thereof” (TAKEDA PHARMACEUTICAL COMPANY LIMITED, priority 2005, published 2010)

Tests used:
[1] = RIA of immunoreactive NERP in human plasma; conditions: endogenous
[2] = RIA quantification of tissue levels of NERP in rat tissues; conditions: endogenous immunoreactive peptide, male Wistar rat

Row | Substance | plasma levels of immunoreactive NERP in human [1] | Tissue level, Brain [2] | Tissue level, Colon Ascending [2] | Tissue level, Colon Descending [2] | Tissue level, Duodenum [2] | Tissue level, Heart Atrium [2] | Tissue level, Heart Ventricle [2] | Tissue level, Hypothalamus [2] | Tissue level, Ileum [2] | Tissue level, Jejunum [2] | Tissue level, Liver [2] | Tissue level, Lung [2] | Tissue level, Pancreas [2] | Tissue level, Pituitary Anterior [2] | Tissue level, Pituitary Posterior [2] | Tissue level, Spleen [2] | Tissue level, Stomach Antrum [2] | Tissue level, Stomach Fundus [2]
1 | NERP-1: VGF-derived peptide; human, rat and mouse sequences are SEQ ID NO: 4, 5 and 6; rat form an amidated 25-amino acid peptide (RPESALLGGSEAGERLLQQGLAQVEA; Neuroendocrine regulatory peptide-1; UniProt O15240 281-306, looked up) [VGF-derived peptide; rat form an amidated 25-amino acid peptide] | 9.8 ± 1.1 fmol/mL | 6.60 ± 0.32 pmol/g wet weight | 1.98 ± 0.35 pmol/g wet weight | 7.14 ± 0.46 pmol/g wet weight | 0.97 ± 0.04 pmol/g wet weight | 0.69 ± 0.18 pmol/g wet weight | 0.11 ± 0.01 pmol/g wet weight | 15.59 ± 1.21 pmol/g wet weight | 1.63 ± 0.26 pmol/g wet weight | 1.11 ± 0.12 pmol/g wet weight | 0.15 ± 0.05 pmol/g wet weight | 0.22 ± 0.02 pmol/g wet weight | 0.15 ± 0.02 pmol/g wet weight | 5.99 ± 0.40 pmol/g wet weight | 34.73 ± 2.82 pmol/g wet weight | 0.28 ± 0.04 pmol/g wet weight | 0.48 ± 0.12 pmol/g wet weight | 0.79 ± 0.02 pmol/g wet weight
2 | NERP-2: VGF-derived peptide; human, rat and mouse sequences are SEQ ID NO: 7, 8 and 9; rat form an amidated 38-amino acid peptide (QAEATRQAAAQEERLADLASDLLLQYLLQGGARQRGLG; Neuroendocrine regulatory peptide-2; UniProt O15240 310-347, looked up) [VGF-derived peptide; rat form an amidated 38-amino acid peptide] | 10.8 ± 1.0 fmol/mL | 4.14 ± 0.25 pmol/g wet weight | 0.23 ± 0.03 pmol/g wet weight | 3.94 ± 0.30 pmol/g wet weight | 0.38 ± 0.13 pmol/g wet weight | 0.21 ± 0.04 pmol/g wet weight | 0.03 ± 0.01 pmol/g wet weight | 12.87 ± 1.50 pmol/g wet weight | 0.18 ± 0.01 pmol/g wet weight | 0.26 ± 0.02 pmol/g wet weight | 0.05 ± 0.01 pmol/g wet weight | 0.07 ± 0.01 pmol/g wet weight | 0.05 ± 0.01 pmol/g wet weight | 3.11 ± 0.36 pmol/g wet weight | 14.45 ± 1.91 pmol/g wet weight | 0.06 ± 0.01 pmol/g wet weight | 0.26 ± 0.05 pmol/g wet weight | 0.30 ± 0.03 pmol/g wet weight
